{"source": "paper PMC7947203", "target": "T1, Myc-TAK1 (UniProt O43318)", "T1 sequence": "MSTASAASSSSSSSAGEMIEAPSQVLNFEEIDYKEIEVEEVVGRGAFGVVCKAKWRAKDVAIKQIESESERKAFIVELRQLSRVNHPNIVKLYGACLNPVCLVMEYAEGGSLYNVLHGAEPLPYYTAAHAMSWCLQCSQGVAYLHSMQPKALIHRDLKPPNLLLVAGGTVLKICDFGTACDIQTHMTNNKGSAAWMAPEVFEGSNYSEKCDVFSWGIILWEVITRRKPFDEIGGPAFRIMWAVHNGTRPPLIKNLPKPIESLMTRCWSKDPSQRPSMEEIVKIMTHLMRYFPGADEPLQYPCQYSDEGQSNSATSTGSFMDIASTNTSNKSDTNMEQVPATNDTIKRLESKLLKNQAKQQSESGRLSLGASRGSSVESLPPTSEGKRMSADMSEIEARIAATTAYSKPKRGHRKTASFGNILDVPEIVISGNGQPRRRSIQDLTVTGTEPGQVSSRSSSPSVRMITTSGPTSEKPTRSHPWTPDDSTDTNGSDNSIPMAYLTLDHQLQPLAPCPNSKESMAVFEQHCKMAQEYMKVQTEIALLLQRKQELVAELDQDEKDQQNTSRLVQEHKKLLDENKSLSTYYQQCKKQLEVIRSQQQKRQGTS", "assay": "co-IP", "note": "No constants are given. Whether binding was seen depends on the method and setting. In cells and extracts the contact can be indirect. Some results given as binding are weak or reduced against the parent protein; the word gives no strength. Where a sequence is shown, tags or fusion partners need not be part of it."}
{"binder": "3×HA-TAB2 (protein, UniProt Q9NYJ8 1-693) MAQGSHQIDFQVLHDLRQKFPEVPEVVVSRCMLQNNNNLDACCAVLSQESTRYLYGEGDLNFSDDSGISGLRNHMTSLNLDLQSQNIYHHGREGSRMNGSRTLTHSISDGQLQGGQSNSELFQQEPQTAPAQVPQGFNVFGMSSSSGASNSAPHLGFHLGSKGTSSLSQQTPRFNPIMVTLAPNIQTGRNTPTSLHIHGVPPPVLNSPQGNSIYIRPYITTPGGTTRQTQQHSGWVSQFNPMNPQQVYQPSQPGPWTTCPASNPLSHTSSQQPNQQGHQTSHVYMPISSPTTSQPPTIHSSGSSQSSAHSQYNIQNISTGPRKNQIEIKLEPPQRNNSSKLRSSGPRTSSTSSSVNSQTLNRNQPTVYIAASPPNTDELMSRSQPKVYISANAATGDEQVMRNQPTLFISTNSGASAASRNMSGQVSMGPAFIHHHPPKSRAIGNNSATSPRVVVTQPNTKYTFKITVSPNKPPAVSPGVVSPTFELTNLLNHPDHYVETENIQHLTDPTLAHVDRISETRKLSMGSDDAAYTQALLVHQKARMERLQRELEIQKKKLDKLKSEVNEMENNLTRRRLKRSNSISQIPSLEEMQQLRSCNRQLQIDIDCLTKEIDLFQARGPHFNPSAIHNFYDNIGFVGPVPPKPKDQRSIIKTPKTQDTEDDEGAQWNCTACTFLNHPALIRCEQCEMPRHF", "values": [{"measurement": "binding", "value": "binds"}]}
{"binder": "3×HA-TAB1 (protein, UniProt Q15750 1-504) MAAQRRSLLQSEQQPSWTDDLPLCHLSGVGSASNRSYSADGKGTESHPPEDSWLKFRSENNCFLYGVFNGYDGNRVTNFVAQRLSAELLLGQLNAEHAEADVRRVLLQAFDVVERSFLESIDDALAEKASLQSQLPEGVPQHQLPPQYQKILERLKTLEREISGGAMAVVAVLLNNKLYVANVGTNRALLCKSTVDGLQVTQLNVDHTTENEDELFRLSQLGLDAGKIKQVGIICGQESTRRIGDYKVKYGYTDIDLLSAAKSKPIIAEPEIHGAQPLDGVTGFLVLMSEGLYKALEAAHGPGQANQEIAAMIDTEFAKQTSLDAVAQAVVDRVKRIHSDTFASGGERARFCPRHEDMTLLVRNFGYPLGEMSQPTPSPAPAAGGRVYPVSVPYSSAQSTSKTSVTLSLVMPSQGQMVNGAHSASTLDEATPTLTNQSPTLTLQSTNTHTQSSSSSSDGGLFRSRPAHSLPPGEDGRVEPYVDFAEFYRLWSVDHGEQSVVTAP", "values": [{"measurement": "binding", "value": "binds"}]}
{"binder": "3×HA-TAB3 (protein, UniProt Q8N5C8 1-712) MAQSSPQLDIQVLHDLRQRFPEIPEGVVSQCMLQNNNNLEACCRALSQESSKYLYMEYHSPDDNRMNRNRLLHINLGIHSPSSYHPGDGAQLNGGRTLVHSSSDGHIDPQHAAGKQLICLVQEPHSAPAVVAATPNYNPFFMNEQNRSAATPPSQPPQQPSSMQTGMNPSAMQGPSPPPPPPSYMHIPRYSTNPITVTVSQNLPSGQTVPRALQILPQIPSNLYGSPGSIYIRQTSQSSSGRQTPQSTPWQSSPQGPVPHYSQRPLPVYPHQQNYQPSQYSPKQQQIPQSAYHSPPPSQCPSPFSSPQHQVQPSQLGHIFMPPSPSTTPPHPYQQGPPSYQKQGSHSVAYLPYTASSLSKGSMKKIEITVEPSQRPGTAINRSPSPISNQPSPRNQHSLYTATTPPSSSPSRGISSQPKPPFSVNPVYITYTQPTGPSCTPSPSPRVIPNPTTVFKITVGRATTENLLNLVDQEERSAAPEPIQPISVIPGSGGEKGSHKYQRSSSSGSDDYAYTQALLLHQRARMERLAKQLKLEKEELERLKSEVNGMEHDLMQRRLRRVSCTTAIPTPEEMTRLRSMNRQLQINVDCTLKEVDLLQSRGNFDPKAMNNFYDNIEPGPVVPPKPSKKDSSDPCTIERKARRISVTSKVQADIHDTQAAAADEHRTGSTQSPRTQPRDEDYEGAPWNCDSCTFLNHPALNRCEQCEMPRYT", "values": [{"measurement": "binding", "value": "binds"}]}
